Test results from article PMC12580894 (Cancer Research Communications, 2025).
“Also recorded” adds a separate entry of the source.

How the values were obtained:
clinical = conditions: human, in vivo; for AUC(0-inf): AUC0–inf
[1] = first-in-human study, cited from earlier work
[2] = tested on: advanced or metastatic gastrointestinal malignancies; conditions: in vivo; cited from earlier work
[3] = tested on: patients with advanced solid tumors; test: Phase Ib dose-escalation (3 + 3) of elimusertib with cisplatin: safety, DLT, MTD
[4] = All patients (n=15), elimusertib with cisplatin
[5] = Patients at MTD (n=6), elimusertib with cisplatin
[6] = elimusertib with cisplatin, all patients

With C[C@@H]1COCCN1c1cc(-c2ccnn2C)c2ccnc(-c3ccn[nH]3)c2n1 [elimusertib] the AUC(0-inf) (clinical; 10 mg, plasma, day 2, geometric mean (SD), dose level 0, 10 mg twice daily on days 2 and 9 (n = 3), last sample 8 hours) was 2100 ng·h/mL, the Cmax (clinical; 10 mg, for each 10 mg dose, very similar to the previous report) was about 200 ng/mL and the Cmax (clinical; 10 mg, plasma, day 2, geometric mean (SD), dose level 0, 10 mg twice daily on days 2 and 9 (n = 3)) was 194 ng/mL. The AUC(0-inf) (clinical; 20 mg, plasma, day 2, geometric mean (SD), dose level 1, 20 mg twice daily on days 2 and 9 (n = 3), last sample 8 hours) was 7010 ng·h/mL, the AUC(0-inf) (clinical; 20 mg, plasma, day 2, geometric mean (SD), dose level −1, 20 mg once a day on days 2 and 9 (n = 3), last sample 24 hours) was 3690 ng·h/mL and the AUC(0-inf) (clinical; 20 mg, plasma, day 2, geometric mean (SD), dose level −2, 20 mg once a day on day 2 (n = 6), last sample 24 hours) was 5210 ng·h/mL. For the same compound, the Cmax (clinical; 20 mg, plasma, day 2, geometric mean (SD), dose level 1, 20 mg twice daily on days 2 and 9 (n = 3)) was 625 ng/mL, the Cmax (clinical; 20 mg, plasma, day 2, geometric mean (SD), dose level −1, 20 mg once a day on days 2 and 9 (n = 3)) was 355 ng/mL and the Cmax (clinical; 20 mg, plasma, day 2, geometric mean (SD), dose level −2, 20 mg once a day on day 2 (n = 6)) was 472 ng/mL. For the same compound, the Tmax ([1]; previously reported value) was 1 h, the half-life ([1]; prior value) was 11.5 h and the PK [2] was “unremarkable PK”. For the same compound, the “Alkaline phosphatase increase, Grade 1-2” value [3, 4] was 2 (13%) n(%), the “Anemia, Grade 1-2” value [3, 4] was 5 (33%) n(%) and the “Anemia, Grade 3 or higher” value [3, 4] was 5 (33%) n(%). For the same compound, the “Anorexia, Grade 1-2” value [3, 4] was 4 (27%) n(%), the “Anorexia, Grade 3 or higher” value [3, 4] was 1 (7%) n(%) and the “Creatinine increase, Grade 1-2” value [3, 4] was 2 (13%) n(%). The “Creatinine increase, Grade 3 or higher” value [3, 4] was 1 (7%) n(%), the “Dehydration, Grade 1-2” value [3, 4] was 1 (7%) n(%) and the “Diarrhea, Grade 1-2” value [3, 4] was 1 (7%) n(%). For the same compound, the “Dysgeusia, Grade 1-2” value [3, 4] was 2 (13%) n(%), the “Dyspepsia, Grade 1-2” value [3, 4] was 2 (13%) n(%) and the “Epistaxis, Grade 1-2” value [3, 4] was 1 (7%) n(%). The “Fatigue, Grade 1-2” value [3, 4] was 7 (47%) n(%), the “Fatigue, Grade 3 or higher” value [3, 4] was 2 (13%) n(%) and the “Febrile neutropenia, Grade 3 or higher” value [3, 4] was 2 (13%) n(%). The “Gastroesophageal reflux disease, Grade 1-2” value [3, 4] was 1 (7%) n(%), the “Generalized muscle weakness, Grade 1-2” value [3, 4] was 1 (7%) n(%) and the “Hypoalbuminemia, Grade 1-2” value [3, 4] was 1 (7%) n(%). For the same compound, the “Hypokalemia, Grade 1-2” value [3, 4] was 2 (13%) n(%), the “Hypokalemia, Grade 3 or higher” value [3, 4] was 1 (7%) n(%) and the “Hypomagnesemia, Grade 1-2” value [3, 4] was 5 (33%) n(%). The “Hyponatremia, Grade 1-2” value [3, 4] was 2 (13%) n(%), the “Leukopenia, Grade 1-2” value [3, 4] was 1 (7%) n(%) and the “Leukopenia, Grade 3 or higher” value [3, 4] was 8 (53%) n(%). For the same compound, the “Lung infection, Grade 3 or higher” value [3, 4] was 1 (7%) n(%), the “Lymphopenia, Grade 1-2” value [3, 4] was 6 (40%) n(%) and the “Lymphopenia, Grade 3 or higher” value [3, 4] was 2 (13%) n(%). The “Neutropenia, Grade 3 or higher” value [3, 4] was 9 (60%) n(%), the “Peripheral sensory neuropathy, Grade 1-2” value [3, 4] was 3 (20%) n(%) and the “Sepsis, Grade 3 or higher” value [3, 4] was 1 (7%) n(%). For the same compound, the “Syncope, Grade 3 or higher” value [3, 4] was 1 (7%) n(%), the “Thrombocytopenia, Grade 1-2” value [3, 4] was 1 (7%) n(%) and the “Thrombocytopenia, Grade 3 or higher” value [3, 4] was 7 (47%) n(%). For the same compound, the “Transaminitis, Grade 1-2” value [3, 4] was 1 (7%) n(%), the “Transaminitis, Grade 3 or higher” value [3, 4] was 1 (7%) n(%) and the “Wound dehiscence, Grade 1-2” value [3, 4] was 1 (7%) n(%). For the same compound, the “DLTs observed (by patient)” value ([3]; DL 0: elimusertib 10 mg orally twice daily on days 2 and 9, cisplatin 60 mg/m^2 intravenously on day 1) was “Patient 1 Grade 4: neutropenia; also recorded: Patient 2 Grade 4: febrile neutropenia, thrombocytopenia”, the “DLTs observed (by patient)” value ([3]; DL 1: elimusertib 20 mg orally twice daily on days 2 and 9, cisplatin 60 mg/m^2 intravenously on day 1) was “Patient 1 Grade 3: creatinine increase, fatigue Grade 4: neutropenia, thrombocytopenia; also recorded: Patient 2 Grade 4: neutropenia; also recorded: Patient 3 Grade 4: hypokalemia, thrombocytopenia” and the “DLTs observed (by patient)” value ([3]; DL −1: elimusertib 20 mg orally once a day on days 2 and 9, cisplatin 30 mg/m^2 intravenously on days 1 and 8) was “Patient 1 Grade 3: syncope; also recorded: Patient 2 Grade 4: thrombocytopenia”. The “DLTs observed (by patient)” value ([3]; DL −2: elimusertib 20 mg orally once a day on day 2, cisplatin 30 mg/m^2 intravenously on days 1 and 8) was “Grade 3: fatigue Grade 4: neutropenia, thrombocytopenia”, the “Anemia, Grade 3 or higher” value [3, 5] was 3 (50%) n(%) and the “Anorexia, Grade 1-2” value [3, 5] was 2 (33%) n(%). The “Creatinine increase, Grade 1-2” value [3, 5] was 1 (17%) n(%), the “Diarrhea, Grade 1-2” value [3, 5] was 1 (17%) n(%) and the “Dysgeusia, Grade 1-2” value [3, 5] was 2 (33%) n(%). For the same compound, the “Fatigue, Grade 1-2” value [3, 5] was 2 (33%) n(%), the “Fatigue, Grade 3 or higher” value [3, 5] was 1 (17%) n(%) and the “Hypokalemia, Grade 1-2” value [3, 5] was 2 (33%) n(%). The “Hypomagnesemia, Grade 1-2” value [3, 5] was 2 (33%) n(%), the “Leukopenia, Grade 1-2” value [3, 5] was 2 (33%) n(%) and the “Leukopenia, Grade 3 or higher” value [3, 5] was 2 (33%) n(%). For the same compound, the “Lymphopenia, Grade 1-2” value [3, 5] was 3 (50%) n(%), the “Lymphopenia, Grade 3 or higher” value [3, 5] was 1 (17%) n(%) and the “Neutropenia, Grade 3 or higher” value [3, 5] was 3 (50%. The “Thrombocytopenia, Grade 3 or higher” value [3, 5] was 3 (50%) n(%), the “patients requiring elimusertib dose reduction due to toxicity” value ([3]; at the MTD) was “one” and the “maximum tolerated dose (MTD)” value ([3]; dose level −2: elimusertib orally once on day 2 with cisplatin 30 mg/m^2 intravenously on days 1 and 8, 21-day cycle) was 20 mg. For the same compound, the “patients requiring dose holds of elimusertib on day 9” value ([3]; dose levels that included day 9 of elimusertib, out of nine patients) was “three”, the “patients who died due to protocol therapy” value ([3]; eight of 15 patients had died at data cutoff) was “none” and the “grade 3 or higher AEs at the MTD” value ([3]; elimusertib 20 mg once on day 2, cisplatin 30 mg/m^2 on days 1 and 8) was “anemia, fatigue, leukopenia, lymphopenia, neutropenia, and thrombocytopenia”. For the same compound, the “dose-limiting toxicities (DLT) requiring dose de-escalation” value ([3]; elimusertib with cisplatin, all dose levels) was “creatinine increase, hypokalemia, febrile neutropenia, neutropenia, syncope, and thrombocytopenia”, the “Grade 3 serious adverse events (SAEs): anemia” value [3, 6] was 4 n and the “Grade 3 serious adverse events (SAEs): anorexia” value [3, 6] was 1 n. The “Grade 3 serious adverse events (SAEs): creatinine increase” value [3, 6] was 1 n, the “Grade 3 serious adverse events (SAEs): fatigue” value [3, 6] was 2 n and the “Grade 3 serious adverse events (SAEs): febrile neutropenia” value [3, 6] was 1 n. For the same compound, the “Grade 3 serious adverse events (SAEs): leukopenia” value [3, 6] was 4 n, the “Grade 3 serious adverse events (SAEs): lung infection” value [3, 6] was 1 n and the “Grade 3 serious adverse events (SAEs): lymphopenia” value [3, 6] was 2 n. For the same compound, the “Grade 3 serious adverse events (SAEs): neutropenia” value [3, 6] was 5 n, the “Grade 3 serious adverse events (SAEs): syncope” value [3, 6] was 1 n and the “Grade 3 serious adverse events (SAEs): transaminitis” value [3, 6] was 1 n. The “Grade 4 SAEs: febrile neutropenia” value [3, 6] was 1 n, the “Grade 4 SAEs: hypokalemia” value [3, 6] was 1 n and the “Grade 4 SAEs: leukopenia” value [3, 6] was 4 n. For the same compound, the “Grade 4 SAEs: neutropenia” value [3, 6] was 4 n, the “Grade 4 SAEs: thrombocytopenia” value [3, 6] was 7 n and the “Grade 5 sepsis resulting in death (patients)” value [3, 6] was “one”. For the same compound, the “patients who discontinued due to AEs” value ([3]; n = 5 of 15, including a patient who died) was 33%.
